From PubChem BioAssay AID2685 (National Center for Advancing Translational Sciences (NCATS), 2010)
This is one part of the list. These are further read-outs of the screen, such as a control signal, another cell line or another target. No call is given for them. Compounds called inactive in the main read-out are mostly missing here. Potencies come from curve fits of mixed quality, noted in brackets.

Assay: qHTS Assay for Lipid Storage Modulators in Drosophila S3 Cells;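 on cell number change: cells counted by Cell Tracker Red CMTPX staining in the red channel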
Conditions: BODIPY lipid droplet fluorescence, 18-24 h; for cell number change: measured here: cell count max response, cells fed with added oleic acid
How it was run: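 Drosophila S3 cells got compounds at several concentrations plus oleic acid (400 uM solution). Laser-scanning cytometry with 488 nm excitation read lipid droplets at 500-530 nm and cells at 575-640 nm. Percent activity was relative to 20 uM Triacsin C.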

[1] = measured here: lipid fluorescence (Fed channel) AC50, cells fed with added oleic acid
[2] = measured here: cell number channel AC50, cells fed with added oleic acid

SMILES	cell number change [%]	AC50 [1]	AC50 [2]
CC1CCCCC1NCc1cccc([N+](=O)[O-])c1 (stereo unspecified)	0.0951	0.517 µM [falling, full curve]	
Cn1c2c(c3ccccc31)CCSC2=O	9.57	10.3 µM [rising, partial curve]	
Cc1ccc(N2CCN(C3=NC(=O)/C(=C\c4cccs4)S3)CC2)cc1		1.84 µM [rising, partial curve]	0.82 µM [rising, full curve]
C=CCN1C(=O)C(Cc2ccc(OCC)cc2)S/C1=N\N=C\c1cccs1 (stereo unspecified)	0.925	6.51 µM [falling, single point]	
Cc1cc(C)n(C(=O)CCCn2nc(C)c([N+](=O)[O-])c2C)n1	-37.7		23.1 µM [falling, single point]
COc1ccc(Cl)cc1NC(=O)CSc1nc(=O)n(CCN(C)C)c2c1CCCC2		0.00411 µM [falling, full curve, poor fit]	0.00517 µM [falling, full curve, poor fit]
CCOC(=O)c1ccc(NC(=O)CCc2nc(-c3ccccc3Cl)no2)cc1	5.75	0.411 µM [falling, full curve, poor fit]	0.517 µM [falling, full curve, poor fit]
COc1ccccc1NC(=O)C(C)OC(=O)C1CCC(C(C)(C)C)CC1 (stereo unspecified)	-39.4	23.1 µM [falling, single point]	20.6 µM [falling, single point]
Brc1cc(/C=N/n2cnnc2)oc1Br	-67.6		20.6 µM [falling, partial curve]
Cc1cccc(NC(=O)CNC(=O)Cc2ccc(S(=O)(=O)N3CCOCC3)s2)c1C	1.97	16.4 µM [rising, single point]	
COc1cc([N+](=O)[O-])cc(/C=N/NC(=O)CSc2nnc(-c3ccccc3)n2C)c1O		4.61 µM [rising, partial curve]	0.82 µM [rising, partial curve]
O=C(CSc1n[nH]c(-c2ccncc2)n1)Nc1ccccn1	-4.95	5.17 µM [rising, single point]	
Cn1c(C(=O)NC2CCCCC2)cc2c(=O)n(C)c3ccccc3c21	36.5	1.84 µM [rising, partial curve]	0.92 µM [rising, full curve, poor fit]
Cc1ccc(NC(=O)C2CCN(S(=O)(=O)c3ccc(Cl)c(C(F)(F)F)c3)CC2)nc1	-3.31	0.58 µM [falling, single point]	
CC1=NOC(=O)/C1=C\c1ccc(-c2ccccc2Br)o1	-74.5		29.1 µM [falling, single point]
O=C(CN1c2cccc3cccc(c23)S1(=O)=O)NCc1ccc(Cl)cc1	-58.4	18.4 µM [falling, partial curve]	29.1 µM [falling, single point]
COc1ccc(C2(c3ccc(OC(C)=O)cc3OC(C)=O)CC(c3ccccc3)NC(=S)N2)cc1 (stereo unspecified)	-12.3	0.58 µM [rising, partial curve, poor fit]	

SMILES	cell number change [%]	AC50 [1]	AC50 [2]
O=C(Nc1ccc2c(c1)nc1n2CCCCC1)c1cc(S(=O)(=O)N2CCOCC2)ccc1Cl	-29.8	18.4 µM [falling, single point]	
CCCCCCCOC(=O)c1nc(Cl)c(Cl)c(N)c1Cl	-44.6	0.00517 µM [falling, full curve, poor fit]	
O=C(CN1CCN(Cc2ccccc2)CC1)N=Nc1c(O)[nH]c2ccccc12	9.56	1.16 µM [rising, full curve, poor fit]	
CCc1nc(NCCCCCO)c2nnn(Cc3ccccc3F)c2n1	19		4.11 µM [rising, partial curve, poor fit]
COCCCNc1nc2cc(OC)c(OC)cc2c2nc(-c3ccccc3)nn12	-35	29.1 µM [falling, single point]	29.1 µM [falling, single point]
Cc1ccc(NC(=S)Nc2cccc3cnccc23)cc1C	54.5		
COc1ccc(CNC(=O)C(c2ccco2)N(C(=O)c2snc(C(N)=O)c2N)c2cccc(OC)c2)cc1 (stereo unspecified)	17.7	0.184 µM [falling, full curve]	
COCc1cc(C)nc(OCC(=O)N/N=C/c2ccc(OC)c(OC)c2)c1C#N	-13.4	5.8 µM [rising, partial curve]	
Cc1ccc(NC(=O)CSc2nnc(-c3cc(C)on3)o2)cc1	-1.9	29.1 µM [falling, single point]	
CCNc1nc(NC(C)C)nc(N(C)C#N)n1	34.6	29.1 µM [rising, single point]	0.92 µM [rising, full curve, poor fit]
COc1cccc(N(C(=O)c2snc(C(N)=O)c2N)C(C(=O)NCC2CCCO2)c2ccc3ncccc3c2)c1 (stereo unspecified)	25.6	0.13 µM [falling, full curve, poor fit]	
COc1ccc(C)cc1NC(=O)COCC(=O)O	8.68	0.0184 µM [falling, full curve]	0.231 µM [falling, partial curve, poor fit]
CCOC(=O)CCc1c(C)c2ccc(O)cc2oc1=O	-102	20.6 µM [falling, partial curve]	20.6 µM [falling, partial curve]
S=c1[nH]nc(-c2ccc3ncccc3c2)n1-c1ccc2c(c1)OCCO2	-6.84	0.92 µM [rising, full curve, poor fit]	0.731 µM [rising, partial curve]
O=C(Nc1nccs1)c1ccc(S(=O)(=O)c2ccccc2)cc1	-7.96	32.6 µM [rising, single point]	
O=C(c1cccnc1)N1CCN(CCCc2ccccc2)CC1	17	0.146 µM [rising, full curve]	
COc1cc2c3c(c1OC)C1(C=CC(=O)C=C1)CC3N(C(=O)CCC(=O)O)CC2 (stereo unspecified)	11.7	0.164 µM [rising, full curve, poor fit]	

Three structures from above, sorted by heavy-atom count, falling.
SMILES	cell number change [%]	AC50 [1]	AC50 [2]
COc1cc([N+](=O)[O-])cc(/C=N/NC(=O)CSc2nnc(-c3ccccc3)n2C)c1O		4.61 µM [rising, partial curve]	0.82 µM [rising, partial curve]
Cc1ccc(NC(=O)C2CCN(S(=O)(=O)c3ccc(Cl)c(C(F)(F)F)c3)CC2)nc1	-3.31	0.58 µM [falling, single point]	
O=C(CSc1n[nH]c(-c2ccncc2)n1)Nc1ccccn1	-4.95	5.17 µM [rising, single point]	
